Experimental data: PubChem BioAssay AID686937 (Drosophila RNAi Screening Center, 2013)

- Aim: 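Genes whose loss weakens secretory pathway function in fly cells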 (primary screen)
- Cells: Drosophila S2 cells expressing secreted horseradish peroxidase
- Reagents: long dsRNA against Drosophila genes
- Duration: about 5.5 days (5 days dsRNA, then 12 h reporter induction)
- Treatment: reporter expression induced after 5 days of dsRNA, read 12 h later; inducer not stated
- Read-out: 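After 5 days of dsRNA and 12 h of reporter induction, medium peroxidase read by chemiluminescence and scored as per-plate z-score; higher values mean more reporter released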
- Scale: z-score: higher = more reporter secreted into medium
The screen tested about 23,000 reagents; below is an unselected part of those with a known target gene and a result. 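Reduced-secretion tags in replicate 1 do not always agree with the z-scores; no criterion for assigning the tags was given.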 The numbers tell different reagents against one gene apart. Names joined by + are all predicted targets of the reagent. Further read-outs or replicates are left out here. The record does not give: the amount of reagent.

z-score, replicate 1, by gene and reagent
ctrip: #1 0.02; #2 -0.05; #3 -4.68
CG34315 + Orc3: #1 0.27
CG15186: #1 0.23
CG10274: #1 -0.22
Alk: #1 0.24
CG32987: #1 0.18
tsl: #1 0.49
CG33454: #1 0.02
Sp1: #1 -0.03; #2 0.36
Ocho: #1 0.48
Mes2: #1 0.3; #2 -0.17
CG3257: #1 0.08
CG43149: #1 0.78
CycB3: #1 0.1
CG7484: #1 -0.41
CG6425: #1 0.22
Ntan1: #1 0.34
toe: #1 0.49; #2 0.16
NANS: #1 0.12
CG10348: #1 0.34; #2 0.93
tyf: #1 0.38
CG14095: #1 0.2
CG3117: #1 0.26
CR31822: #1 0.29
Rbbp5 + CG6434 (retired record): #1 0.29
Acbp6: #1 0.38
CG17258: #1 0.75; #2 0.11
Spn43Ab: #1 -0.08
CG9799: #1 0.03
Or98b: #1 0.42; #2 -0.31
CG12836: #1 0.49
E(spl)m7-HLH: #1 0.25
CG13053: #1 0.01
Task7: #1 0.38
CG14949: #1 0.16

4 neighbouring records from above, for reference:
z-score, replicate 1, by gene and reagent
tyf: #1 0.38
CG14095: #1 0.2
CG3117: #1 0.26
CR31822: #1 0.29

The results go on.
z-score, replicate 1, by gene and reagent
CG31688: #1 -0.07; #2 0.05
Dcr-2: #1 0.38
CG11373: #1 0.34
Sema2b: #1 0.69; #2 0.61; #3 0.69
Rrp47: #1 0.22
CG7745: #1 -0.38
CG2663: #1 0.52
Diedel3: #1 -0.19
CG7218: #1 0.03
Timp: #1 0.28
ldbr: #1 -0.45
Pros28.2 (retired record): #1 0.25
CG2577: #1 0.42
CG5327: #1 0.3
CG14610 + asRNA:CR42738: #1 0.18
LanA: #1 0.17
l(3)L1231: #1 0.16
Spt3: #1 0.14
Sbp2: #1 0.27
emei: #1 0.28; #2 -1.54
Hsp26: #1 0.4
CG13784: #1 0.08; #2 0.29
Obp56a: #1 0.41
eca: #1 0.07
CG34425: #1 0.35; #2 -0.48
Mocs1: #1 0.28
CG9920: #1 0.35
Lint-1 + rtv: #1 0.2
Polr2K: #1 -4.23
ect: #1 0.35; #2 0.8; #3 0.02
CG32109: #1 0.28
